Test [1] has as its target RFWD2 (human (endogenous in 293T)) (UniProt Q8NHY2). Nature of the test: co-IP; endogenous proteins; whole-cell lysate of 293T cells immunoprecipitated with RFWD2 antibody overnight at 4°C, protein G/A beads 2 h at 4°C; immunoblot.
In a further test the target is T1, Flag-TRIB2-Full (UniProt Q92519).
T1 sequence: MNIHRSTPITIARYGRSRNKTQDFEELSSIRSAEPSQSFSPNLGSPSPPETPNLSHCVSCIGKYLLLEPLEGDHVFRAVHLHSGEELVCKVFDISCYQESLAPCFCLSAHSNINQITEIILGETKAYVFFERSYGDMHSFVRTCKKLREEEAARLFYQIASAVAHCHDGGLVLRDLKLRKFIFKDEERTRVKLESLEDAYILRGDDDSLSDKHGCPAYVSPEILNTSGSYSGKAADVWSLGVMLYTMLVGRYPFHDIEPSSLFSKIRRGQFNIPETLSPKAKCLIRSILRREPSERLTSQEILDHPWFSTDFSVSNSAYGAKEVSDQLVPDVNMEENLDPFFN
The experiment in a line: co-IP; 293T cells transfected with Flag-tagged TRIB2 constructs for 48 h; total lysate in NP-40 buffer (50 mM Tris-Cl pH 7.4, 150 mM NaCl, 1 mM EDTA, 1% NP-40, 0.5% SDS) incubated with Anti-Flag M2 Affinity Gel at 4°C for 2 h; immunoblot of endogenous partners.

Sequences of proteins named here, by UniProt entry; tags and fusion partners are left off.
UniProt Q8NHY2: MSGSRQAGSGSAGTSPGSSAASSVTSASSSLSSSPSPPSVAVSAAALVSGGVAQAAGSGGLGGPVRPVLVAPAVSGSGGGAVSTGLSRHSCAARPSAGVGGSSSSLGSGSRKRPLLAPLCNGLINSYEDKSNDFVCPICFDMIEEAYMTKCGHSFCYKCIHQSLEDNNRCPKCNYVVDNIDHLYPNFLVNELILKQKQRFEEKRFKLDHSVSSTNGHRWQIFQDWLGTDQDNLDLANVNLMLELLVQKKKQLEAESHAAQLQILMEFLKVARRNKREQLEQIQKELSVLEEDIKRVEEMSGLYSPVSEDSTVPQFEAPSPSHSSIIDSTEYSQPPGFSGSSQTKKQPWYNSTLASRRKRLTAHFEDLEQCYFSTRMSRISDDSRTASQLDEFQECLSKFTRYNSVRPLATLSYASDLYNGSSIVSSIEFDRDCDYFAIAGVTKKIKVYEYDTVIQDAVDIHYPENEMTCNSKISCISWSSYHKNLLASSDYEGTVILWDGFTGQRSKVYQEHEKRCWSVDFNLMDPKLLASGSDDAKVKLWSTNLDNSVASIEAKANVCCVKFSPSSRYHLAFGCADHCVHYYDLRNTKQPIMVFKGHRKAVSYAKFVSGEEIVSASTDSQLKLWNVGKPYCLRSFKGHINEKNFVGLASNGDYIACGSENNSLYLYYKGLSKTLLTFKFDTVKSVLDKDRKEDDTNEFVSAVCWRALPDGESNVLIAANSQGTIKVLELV
UniProt P25963: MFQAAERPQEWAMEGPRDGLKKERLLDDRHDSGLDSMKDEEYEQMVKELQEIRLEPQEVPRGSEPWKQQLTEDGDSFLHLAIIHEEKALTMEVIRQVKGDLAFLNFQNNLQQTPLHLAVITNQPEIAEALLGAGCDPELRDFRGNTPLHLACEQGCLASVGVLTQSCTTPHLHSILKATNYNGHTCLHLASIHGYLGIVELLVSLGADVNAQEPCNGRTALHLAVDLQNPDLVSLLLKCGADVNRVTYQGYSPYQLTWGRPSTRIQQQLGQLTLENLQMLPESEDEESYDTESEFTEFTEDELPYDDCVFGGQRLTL

Test [2] has as its target RFWD2 (human (endogenous in 293T)) (UniProt Q8NHY2). The experiment in a line: co-IP; endogenous proteins; whole-cell lysate of 293T cells immunoprecipitated with RFWD2 antibody overnight at 4°C, protein G/A beads 2 h at 4°C; immunoblot. The source holds these as a separate data set.
Test [3] concerns the target IκB-α (human (endogenous in 293T)) (UniProt P25963). Nature of the test: co-IP; endogenous proteins; 293T lysate immunoprecipitated with anti-IκB-α antibodies overnight at 4°C, protein G/A beads 2 h at 4°C; immunoblot.
Test [4] has as its target IκB-α, eukaryotic expressed and purified (UniProt P25963). The experiment in a line: co-IP; eukaryotic expressed and purified TRIB2 and IκB-α proteins; precipitated with IκB-α antibodies; both purified.

Where two headings read alike, the source gives them in different places. These are yes or no findings as the source states them, for the method shown. For part of these data: In cells and extracts the contact can be indirect. Some results given as binding are weak or reduced against the parent protein; the word gives no strength. For part of these data: Where a sequence is shown, tags or fusion partners need not be part of it.

For IκB-α (from UniProt P25963 1-317), the binding result (in test [1]; with Flag-TRIB2-Full) was “binds” throughout. In the case of p-IκB-α (from UniProt P25963 1-317), the binding result with Flag-TRIB2-Full is on record as “binds”.

B1: TRIB2 (protein, UniProt Q92519 1-343)
chain: T1 sequence
Consider B1, for which the binding result in test [2] and in test [3] was “binds” each time.

B2: TRIB2, eukaryotic expressed and purified (protein, UniProt Q92519 1-343)
chain: T1 sequence
Take B2: the binding result in test [4] is “binds”.

Source of the values: paper PMC8503262.
